Laboratory results: publication PMC8611766
No constants are given. Whether binding was seen depends on the method and setting. In cells and extracts the contact can be indirect. Some entries that bind do so weakly or less than the wild type.

Amino acid sequences for entries named in this document (tags omitted). Residues count along the entry.
UniProt Q62151, residues 23-402: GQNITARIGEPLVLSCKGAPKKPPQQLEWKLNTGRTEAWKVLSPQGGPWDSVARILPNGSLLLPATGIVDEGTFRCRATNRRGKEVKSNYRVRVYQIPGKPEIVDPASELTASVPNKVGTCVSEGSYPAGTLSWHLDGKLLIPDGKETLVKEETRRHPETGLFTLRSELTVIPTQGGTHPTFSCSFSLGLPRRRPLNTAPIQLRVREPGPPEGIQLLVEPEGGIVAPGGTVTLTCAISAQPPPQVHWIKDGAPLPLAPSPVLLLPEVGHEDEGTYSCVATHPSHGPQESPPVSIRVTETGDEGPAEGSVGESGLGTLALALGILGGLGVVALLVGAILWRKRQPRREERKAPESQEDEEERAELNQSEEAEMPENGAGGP

T1: F-box protein O10 (FBXO10) (mouse (in BV2 cells; whether endogenous is not stated)) (UniProt Q7TQF2)
T1 sequence: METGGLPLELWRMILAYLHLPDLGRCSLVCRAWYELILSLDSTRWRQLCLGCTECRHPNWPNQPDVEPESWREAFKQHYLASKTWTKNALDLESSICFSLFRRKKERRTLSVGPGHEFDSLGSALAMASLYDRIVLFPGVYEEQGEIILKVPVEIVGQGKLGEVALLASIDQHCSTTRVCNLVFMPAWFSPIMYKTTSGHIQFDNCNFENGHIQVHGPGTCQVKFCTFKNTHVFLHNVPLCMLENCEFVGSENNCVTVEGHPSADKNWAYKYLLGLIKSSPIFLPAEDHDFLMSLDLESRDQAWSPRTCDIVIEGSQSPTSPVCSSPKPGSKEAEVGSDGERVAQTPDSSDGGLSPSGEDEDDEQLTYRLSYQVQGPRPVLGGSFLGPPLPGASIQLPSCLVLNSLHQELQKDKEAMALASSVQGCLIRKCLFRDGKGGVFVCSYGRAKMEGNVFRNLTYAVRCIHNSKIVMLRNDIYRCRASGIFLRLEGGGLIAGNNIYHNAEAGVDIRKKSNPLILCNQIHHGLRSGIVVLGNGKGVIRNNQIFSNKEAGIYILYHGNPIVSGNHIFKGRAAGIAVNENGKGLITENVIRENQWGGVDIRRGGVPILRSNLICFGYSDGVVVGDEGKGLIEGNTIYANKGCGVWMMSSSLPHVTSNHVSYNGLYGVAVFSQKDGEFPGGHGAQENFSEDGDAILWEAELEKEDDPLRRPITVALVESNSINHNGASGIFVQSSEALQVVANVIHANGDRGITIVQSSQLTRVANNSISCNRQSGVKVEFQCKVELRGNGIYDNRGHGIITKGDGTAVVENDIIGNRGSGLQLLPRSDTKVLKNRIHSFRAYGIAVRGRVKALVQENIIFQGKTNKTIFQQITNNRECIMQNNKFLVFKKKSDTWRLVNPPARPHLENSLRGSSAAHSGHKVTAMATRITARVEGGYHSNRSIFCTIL

B1: F-box protein O10 (FBXO10) (protein, UniProt Q7TQF2 1-950)
chain: METGGLPLELWRMILAYLHLPDLGRCSLVCRAWYELILSLDSTRWRQLCLGCTECRHPNWPNQPDVEPESWREAFKQHYLASKTWTKNALDLESSICFSLFRRKKERRTLSVGPGHEFDSLGSALAMASLYDRIVLFPGVYEEQGEIILKVPVEIVGQGKLGEVALLASIDQHCSTTRVCNLVFMPAWFSPIMYKTTSGHIQFDNCNFENGHIQVHGPGTCQVKFCTFKNTHVFLHNVPLCMLENCEFVGSENNCVTVEGHPSADKNWAYKYLLGLIKSSPIFLPAEDHDFLMSLDLESRDQAWSPRTCDIVIEGSQSPTSPVCSSPKPGSKEAEVGSDGERVAQTPDSSDGGLSPSGEDEDDEQLTYRLSYQVQGPRPVLGGSFLGPPLPGASIQLPSCLVLNSLHQELQKDKEAMALASSVQGCLIRKCLFRDGKGGVFVCSYGRAKMEGNVFRNLTYAVRCIHNSKIVMLRNDIYRCRASGIFLRLEGGGLIAGNNIYHNAEAGVDIRKKSNPLILCNQIHHGLRSGIVVLGNGKGVIRNNQIFSNKEAGIYILYHGNPIVSGNHIFKGRAAGIAVNENGKGLITENVIRENQWGGVDIRRGGVPILRSNLICFGYSDGVVVGDEGKGLIEGNTIYANKGCGVWMMSSSLPHVTSNHVSYNGLYGVAVFSQKDGEFPGGHGAQENFSEDGDAILWEAELEKEDDPLRRPITVALVESNSINHNGASGIFVQSSEALQVVANVIHANGDRGITIVQSSQLTRVANNSISCNRQSGVKVEFQCKVELRGNGIYDNRGHGIITKGDGTAVVENDIIGNRGSGLQLLPRSDTKVLKNRIHSFRAYGIAVRGRVKALVQENIIFQGKTNKTIFQQITNNRECIMQNNKFLVFKKKSDTWRLVNPPARPHLENSLRGSSAAHSGHKVTAMATRITARVEGGYHSNRSIFCTIL

Legend:
[1] = molecular target: T1, F-box protein O10 (FBXO10) (mouse (in BV2 cells; whether endogenous is not stated)); experiment: co-IP; 500 ug total protein from cell lysates, precleared with protein A/G beads, primary antibody at 4 C overnight; IP for FBXO10 or for RAGE, immunoblot for FBXO10 or RAGE
[2] = molecular target: receptor for advanced glycosylation end products (RAGE) (mouse (in BV2 cells; whether endogenous is not stated)) (UniProt Q62151); experiment: as above

Molecule	binding [1]	binding [2]
receptor for advanced glycosylation end products (RAGE) (from UniProt Q62151 23-402)	binds	–
B1	–	binds
